We go through 1 substance from article PMC12520514.

Sequences of proteins named here, by UniProt entry; tags and fusion partners are left off.
UniProt Q8IY92: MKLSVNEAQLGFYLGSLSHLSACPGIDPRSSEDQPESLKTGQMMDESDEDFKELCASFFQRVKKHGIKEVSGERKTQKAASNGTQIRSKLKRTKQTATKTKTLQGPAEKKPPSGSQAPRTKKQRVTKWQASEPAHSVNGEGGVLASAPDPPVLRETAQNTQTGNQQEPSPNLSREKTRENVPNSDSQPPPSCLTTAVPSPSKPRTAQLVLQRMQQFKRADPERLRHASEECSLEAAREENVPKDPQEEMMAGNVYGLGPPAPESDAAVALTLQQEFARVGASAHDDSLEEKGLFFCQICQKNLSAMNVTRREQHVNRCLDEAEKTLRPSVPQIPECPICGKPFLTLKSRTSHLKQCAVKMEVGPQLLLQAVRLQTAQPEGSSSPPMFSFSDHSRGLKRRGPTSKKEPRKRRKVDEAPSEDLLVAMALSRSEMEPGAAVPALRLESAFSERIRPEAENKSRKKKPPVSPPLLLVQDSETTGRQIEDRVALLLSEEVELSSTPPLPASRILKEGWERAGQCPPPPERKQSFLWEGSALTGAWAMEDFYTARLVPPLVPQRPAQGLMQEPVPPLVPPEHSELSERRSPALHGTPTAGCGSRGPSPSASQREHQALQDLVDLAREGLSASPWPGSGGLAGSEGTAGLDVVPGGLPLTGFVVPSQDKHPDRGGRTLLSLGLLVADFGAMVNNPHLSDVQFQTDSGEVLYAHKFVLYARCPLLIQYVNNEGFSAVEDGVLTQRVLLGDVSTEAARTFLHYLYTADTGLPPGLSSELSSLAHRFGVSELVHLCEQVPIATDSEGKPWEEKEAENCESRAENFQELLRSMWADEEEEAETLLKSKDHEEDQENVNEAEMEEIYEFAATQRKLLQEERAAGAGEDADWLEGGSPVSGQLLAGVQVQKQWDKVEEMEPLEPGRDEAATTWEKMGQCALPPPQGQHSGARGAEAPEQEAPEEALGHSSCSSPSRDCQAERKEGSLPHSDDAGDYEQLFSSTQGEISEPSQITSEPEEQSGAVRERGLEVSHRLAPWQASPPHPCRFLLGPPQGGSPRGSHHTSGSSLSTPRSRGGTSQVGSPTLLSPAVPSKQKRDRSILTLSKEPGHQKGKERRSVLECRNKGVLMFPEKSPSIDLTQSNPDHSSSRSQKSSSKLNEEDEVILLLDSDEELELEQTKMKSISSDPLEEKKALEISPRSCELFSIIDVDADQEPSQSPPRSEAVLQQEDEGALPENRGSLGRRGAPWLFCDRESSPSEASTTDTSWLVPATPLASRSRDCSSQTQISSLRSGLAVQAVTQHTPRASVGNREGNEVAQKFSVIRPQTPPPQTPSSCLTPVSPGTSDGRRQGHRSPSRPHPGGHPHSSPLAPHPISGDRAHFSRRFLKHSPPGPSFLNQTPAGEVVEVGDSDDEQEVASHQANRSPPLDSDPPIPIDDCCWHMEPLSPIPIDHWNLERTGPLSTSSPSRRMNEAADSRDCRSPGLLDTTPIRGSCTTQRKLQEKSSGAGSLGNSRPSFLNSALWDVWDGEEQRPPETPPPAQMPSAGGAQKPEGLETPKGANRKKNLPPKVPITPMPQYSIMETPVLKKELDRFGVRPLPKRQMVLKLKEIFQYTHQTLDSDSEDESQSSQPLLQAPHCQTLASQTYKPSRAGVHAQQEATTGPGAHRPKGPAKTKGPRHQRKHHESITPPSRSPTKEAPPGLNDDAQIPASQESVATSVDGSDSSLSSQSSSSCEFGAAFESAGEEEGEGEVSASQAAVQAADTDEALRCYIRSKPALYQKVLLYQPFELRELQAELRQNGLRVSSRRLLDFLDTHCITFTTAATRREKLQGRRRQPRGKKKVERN

These are yes or no findings as the source states them, for the method shown. In cells and extracts the contact can be indirect.

This assay deals with T1, Importin-13 (UniProt O94829).
T1 sequence: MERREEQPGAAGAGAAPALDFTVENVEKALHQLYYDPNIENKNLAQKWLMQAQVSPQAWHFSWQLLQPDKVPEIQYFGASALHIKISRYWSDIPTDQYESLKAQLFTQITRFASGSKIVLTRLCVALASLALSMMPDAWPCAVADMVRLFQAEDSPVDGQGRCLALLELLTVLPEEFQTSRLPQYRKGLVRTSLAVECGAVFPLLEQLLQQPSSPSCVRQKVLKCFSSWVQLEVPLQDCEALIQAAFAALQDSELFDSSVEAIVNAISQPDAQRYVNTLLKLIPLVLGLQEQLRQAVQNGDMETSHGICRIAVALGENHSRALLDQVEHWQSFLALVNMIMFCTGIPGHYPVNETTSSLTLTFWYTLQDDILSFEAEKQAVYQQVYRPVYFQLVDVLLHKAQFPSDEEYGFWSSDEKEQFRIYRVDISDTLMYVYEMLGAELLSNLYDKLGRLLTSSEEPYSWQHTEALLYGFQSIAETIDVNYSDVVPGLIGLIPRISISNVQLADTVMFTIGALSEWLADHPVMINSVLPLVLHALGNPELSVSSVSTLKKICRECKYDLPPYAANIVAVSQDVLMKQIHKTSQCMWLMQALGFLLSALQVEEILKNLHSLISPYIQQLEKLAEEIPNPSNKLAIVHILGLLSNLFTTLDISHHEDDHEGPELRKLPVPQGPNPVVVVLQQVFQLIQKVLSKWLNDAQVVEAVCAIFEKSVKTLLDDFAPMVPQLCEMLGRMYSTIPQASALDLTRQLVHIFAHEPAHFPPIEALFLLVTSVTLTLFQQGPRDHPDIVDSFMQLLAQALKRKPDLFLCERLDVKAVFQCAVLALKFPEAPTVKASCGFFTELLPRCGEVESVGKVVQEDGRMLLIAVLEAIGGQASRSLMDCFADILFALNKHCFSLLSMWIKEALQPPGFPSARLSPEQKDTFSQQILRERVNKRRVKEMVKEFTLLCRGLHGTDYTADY
Briefly: co-IP; immunoprecipitation assay of SLX4 and IPO13 (Figure S7G); cells, bait and conditions not told in the main text.

As to SLX4 (from UniProt Q8IY92 1-1834), the binding entry is “no binding”.
